Paper doi:10.1101/2025.05.02.651838
These are yes or no findings as the source states them, for the method shown. In cells and extracts the contact can be indirect. Some binding calls cover weakened binding; strength is not graded here. For part of these data: Tags and fused reporters may be left off the sequences shown. Values belong to the binder of their own block, whether it stands above or below them.

How the values were obtained:
C-Flag-PP4R3A = biological target: T1, C-Flag-PP4R3A (UniProt Q6IN85); assay: co-IP
T1 sequence: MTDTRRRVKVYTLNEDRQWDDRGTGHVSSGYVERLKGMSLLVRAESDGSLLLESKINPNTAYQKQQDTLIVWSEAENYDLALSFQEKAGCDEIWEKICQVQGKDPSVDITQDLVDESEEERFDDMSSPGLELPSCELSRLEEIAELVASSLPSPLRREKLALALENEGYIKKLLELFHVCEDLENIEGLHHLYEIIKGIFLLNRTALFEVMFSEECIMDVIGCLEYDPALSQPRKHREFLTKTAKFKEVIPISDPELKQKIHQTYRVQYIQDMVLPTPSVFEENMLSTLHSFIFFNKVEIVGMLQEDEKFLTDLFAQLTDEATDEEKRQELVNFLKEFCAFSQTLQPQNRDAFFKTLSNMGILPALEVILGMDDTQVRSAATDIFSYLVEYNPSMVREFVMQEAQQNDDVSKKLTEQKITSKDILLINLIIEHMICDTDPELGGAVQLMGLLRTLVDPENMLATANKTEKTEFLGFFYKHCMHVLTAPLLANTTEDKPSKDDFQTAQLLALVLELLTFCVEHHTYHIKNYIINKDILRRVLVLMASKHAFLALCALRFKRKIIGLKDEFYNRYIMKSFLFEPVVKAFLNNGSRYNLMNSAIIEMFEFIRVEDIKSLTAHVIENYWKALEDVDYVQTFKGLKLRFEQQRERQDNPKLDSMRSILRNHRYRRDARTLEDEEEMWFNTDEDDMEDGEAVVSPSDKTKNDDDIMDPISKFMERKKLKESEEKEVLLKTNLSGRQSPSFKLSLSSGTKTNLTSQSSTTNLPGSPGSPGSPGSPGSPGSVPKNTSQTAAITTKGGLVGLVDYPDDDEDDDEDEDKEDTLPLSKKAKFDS

Flag-PP4R3B = Flag-PP4R3B (UniProt Q5MIZ7); assay: co-IP

- binding (C-Flag-PP4R3A): binds
- binding (Flag-PP4R3B): binds
B1: PP4R2 (protein, UniProt Q9NY27 1-417)
chain: MDVERLQEALKDFEKRGKKEVCPVLDQFLCHVAKTGETMIQWSQFKGYFIFKLEKVMDDFRTSAPEPRGPPNPNVEYIPFDEMKERILKIVTGFNGIPFTIQRLCELLTDPRRNYTGTDKFLRGVEKNVMVVSCVYPSSEKNNSNSLNRMNGVMFPGNSPSYTERSNINGPGTPRPLNRPKVSLSAPMTTNGLPESTDSKEANLQQNEEKNHSDSSTSESEVSSVSPLKNKHPDEDAVEAEGHEVKRLRFDKEGEVRETASQTTSSEISSVMVGETEASSSSQDKDKDSRCTRQHCTEEDEEEDEEEEEESFMTSREMIPERKNQEKESDDALTVNEETSEENNQMEESDVSQAEKDLLHSEGSENEGPVSSSSSDCRETEELVGSNSSKTGEILSESSMENDDEATEVTDEPMEQD

- binding (Flag-PP4R3B): binds
B2: PP4C (the catalytic subunit of protein phosphatase 4) (protein, UniProt P60510 1-307)
chain: MAEISDLDRQIEQLRRCELIKESEVKALCAKAREILVEESNVQRVDSPVTVCGDIHGQFYDLKELFRVGGDVPETNYLFMGDFVDRGFYSVETFLLLLALKVRYPDRITLIRGNHESRQITQVYGFYDECLRKYGSVTVWRYCTEIFDYLSLSAIIDGKIFCVHGGLSPSIQTLDQIRTIDRKQEVPHDGPMCDLLWSDPEDTTGWGVSPRGAGYLFGSDVVAQFNAANDIDMICRAHQLVMEGYKWHFNETVLTVWSAPNYCYRCGNVAAILELDEHLQKDFIIFEAAPQETRGIPSKKPVADYFL
